Test results as given in the supplement of paper PMC7752906.
Counter-ions that a name gives are not always drawn. Some of the results follow. This data set is noisy: repeats of one test often differ as much as different tests do.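 About 40 Schistosoma mansoni schistosomula per well were imaged over time in bright field and compared with 0.1% DMSO wells. A drug counts as a hit if its Mahalanobis distance reaches 2.47 or more, three standard deviations above the DMSO control mean. Degeneracy is the fraction of worms scored opaque.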

test system: Schistosoma mansoni schistosomula; assay: degeneracy (percent of somules classified as degenerate/opaque); higher = more parasite degeneration/death; extreme values may be limits of the assay; details: 10 µM; 72 h

SMILES | degeneracy [%]
CCN(CC)CCOc1ccc2c(c1)C(=O)c1cc(OCCN(CC)CC)ccc1-2 [Tilorone] | 100
O=C(CCCCCCC(=O)Nc1ccccc1)NO [Vorinostat] | 17.1
CC[C@H]1OC(=O)C[C@@H](O)[C@H](C)[C@@H](O[C@@H]2O[C@H](C)[C@@H](O[C@H]3C[C@@](C)(O)[C@@H](O)[C@H](C)O3)[C@H](N(C)C)[C@H]2O)[C@@H](CC=O)C[C@@H](C)C(=O)/C=C/C(C)=C/[C@@H]1CO[C@@H]1O[C@H](C)[C@@H](O)[C@@H](OC)[C@H]1OC [Tylosin Tartrate] | 2.38
C=C[C@@]1(C)CC(=O)[C@]2(O)[C@@]3(C)[C@@H](O)CCC(C)(C)[C@@H]3[C@H](O)[C@H](OC(C)=O)[C@@]2(C)O1 [Colforsin] | 3.12
CN(Cc1cnc2nc(N)nc(N)c2n1)c1ccc(C(=O)NC(CCC(=O)O)C(=O)O)cc1 (racemic) [Methotrexate(+/-)] | 0
CCN(CC)C(=S)SSC(=S)N(CC)CC [Disulfiram] | 100
C/C(=C(\CCOP(=O)(O)O)SC(=O)c1ccccc1)N(C=O)Cc1cnc(C)nc1N [Benfotiamine] | 5.56
C[C@H](N)[C@H](O)c1cccc(O)c1 [Metaraminol Bitartrate] | 0
C[C@H](N)[C@H](O)c1cccc(O)c1 [Metaraminol] | 0
CC1(C)S[C@@H]2[C@H](NC(=O)C(C(=O)O)c3ccccc3)C(=O)N2[C@H]1C(=O)O (stereo partly drawn) [Carbenicillin Disodium] | 8.89
O=C1CN(/N=C/c2ccc([N+](=O)[O-])o2)C(=O)N1 [Nitrofurantoin] | 0
Cc1ccccc1OCC(O)CO (stereo not drawn) [Mephenesin] | 2.22
CN[C@@H]1[C@@H](O)[C@@H](O[C@@H]2[C@@H](O)[C@H](O[C@H]3OC(CN)=CC[C@H]3N)[C@@H](N)C[C@H]2N)OC[C@]1(C)O [Sisomicin Sulfate] | 0
Cc1cc(NS(=O)(=O)c2ccc(N)cc2)no1 [Sulfamethoxazole] | 2.94
O=C1CN(/N=C/c2ccc(-c3ccc([N+](=O)[O-])cc3)o2)C(=O)N1 [Dantrolene] | 2.63
CCOC(=O)n1ccn(C)c1=S [Carbimazole] | 8.57
C(=C\c1ccccc1)/CN1CCN(C(c2ccccc2)c2ccccc2)CC1 [Cinnarazine] | 23.5
Cc1c(-c2cnccn2)ssc1=S [oltipraz] | 100
C[C@@H]1C[C@H]2[C@@H]3CCC4=CC(=O)C=C[C@]4(C)[C@@]3(F)[C@@H](O)C[C@]2(C)[C@@]1(O)C(=O)COP(=O)(O)O [Dexamethasone Phosphate] | 5.88
C[C@@H]1C[C@H]2[C@@H]3CCC4=CC(=O)C=C[C@]4(C)[C@@]3(F)[C@@H](O)C[C@]2(C)[C@@]1(O)C(=O)COP(=O)(O)O [Dexamethasone Sodium Phosphate] | 3.33
CCN(CC)CCNC(C(=O)OCCC(C)C)c1ccccc1 (stereo not drawn) [Camylofine Dihydrochloride] | 9.76
OCCN(CCO)c1nc(N2CCCCC2)c2nc(N(CCO)CCO)nc(N3CCCCC3)c2n1 [Dipyridamole] | 29.2
O=C(O)c1ccccc1C(=O)Nc1ccc(S(=O)(=O)Nc2nccs2)cc1 [Phthalylsulfathiazole] | 4.17
C[N+](C)(C)CC(=O)O [Betaine] | 0

SMILES | degeneracy [%]
C[C@]12CC[C@@H]3c4ccc(OC(=O)c5ccccc5)cc4CC[C@H]3[C@@H]1CC[C@@H]2O [Estradiol Benzoate] | 0
CN1CCN(C(c2ccccc2)c2ccccc2)CC1 [Cyclizine] | 0
C[C@@H](O)[C@@H]1NC(=O)[C@H](CCCCN)NC(=O)[C@@H](Cc2c[nH]c3ccccc23)NC(=O)[C@H](Cc2ccccc2)NC(=O)[C@@H](NC(=O)[C@H](N)Cc2ccccc2)CSSC[C@@H](C(=O)N[C@H](CO)[C@@H](C)O)NC1=O [Octreotide] | 6.45
O=C(CCCN1CCN(c2ccccn2)CC1)c1ccc(F)cc1 [Azaperone] | 0
CC1CC(OC(=O)c2ccccc2O)CC(C)(C)C1 (stereo not drawn) [Homosalate] | 8.82
N[C@@H](Cc1cc(I)c(Oc2ccc(O)c(I)c2)c(I)c1)C(=O)O [Liothyronine] | 6.45
CN1CCC(=C2c3ccccc3Sc3ccccc32)CC1 [Pimethixene Maleate] | 100
N[C@@H](Cc1c[nH]c2ccccc12)C(=O)O [Tryptophan] | 16.7
O=C(OOC(=O)c1ccccc1)c1ccccc1 [Benzoyl Peroxide] | 8.57
CC(O)Cn1cnc2c1c(=O)n(C)c(=O)n2C (stereo not drawn) [Proxyphylline] | 10
NC(=O)CCCCC1CCSS1 (stereo not drawn) [Lipoamide] | 5.56
C=C(C)[C@H]1CC=C(C)CC1 [D-limonene] | 0
Cc1c(NC(=O)c2cccnc2)c(=O)n(-c2ccccc2)n1C [Nifenazone] | 11.4
CN1C(=O)CC[C@H]1c1cccnc1 [Cotinine] | 15.8
CC[C@@H]1C(=O)OC[C@@H]1Cc1cncn1C [Pilocarpine] | 5.88
O=c1oc2c(O)c(O)cc3c(=O)oc4c(O)c(O)cc1c4c23 [Ellagic Acid] | 7.5
COc1cccc2c1C(=O)c1c(O)c3c(c(O)c1C2=O)C[C@@](O)(C(C)=O)C[C@@H]3O[C@H]1C[C@H](N)[C@H](O)[C@H](C)O1 [Daunorubicin] | 25
C=CC1=C(C(=O)O)N2C(=O)[C@@H](NC(=O)/C(=N\O)c3csc(N)n3)[C@H]2SC1 [cefdinir] | 3.23
OCc1ccccc1O[C@@H]1O[C@H](CO)[C@@H](O)[C@H](O)[C@H]1O [Salicin] | 6.06
CC(=O)NS(=O)(=O)c1ccc(N)cc1 [Sulfacetamide] | 3.85
COc1ccc2cc([C@H](C)C(=O)O)ccc2c1 [Naproxen] | 7.41
Nc1cc(N2CCCCC2)nc(N)[n+]1[O-] [Minoxidil] | 4.76
O=C(O)c1ccccc1OP(=O)(O)O [Fosfosal] | 11.8
C/C=C(/C(=C/C)c1ccc(O)cc1)c1ccc(O)cc1 [Dienestrol] | 100

Random excerpt: 2 entries already listed, in no set order.
SMILES | degeneracy [%]
O=C(OOC(=O)c1ccccc1)c1ccccc1 [Benzoyl Peroxide] | 8.57
CN1CCC(=C2c3ccccc3Sc3ccccc32)CC1 [Pimethixene Maleate] | 100
